From paper PMC8384837
Numbering of substitutions follows the chain as printed. The list shows a part of the results. At the low end of the ranking the order means little.

What was measured:
Conditions in all cases: yeast three-hybrid, YBZ-1, SC-Leu-His + 0.5 mM 3-AT, 4 days
[1] = target: T1, PUM1 PUF domain R3-AIR C935A + R936I + Q939R (UniProt Q14671)
T1 sequence: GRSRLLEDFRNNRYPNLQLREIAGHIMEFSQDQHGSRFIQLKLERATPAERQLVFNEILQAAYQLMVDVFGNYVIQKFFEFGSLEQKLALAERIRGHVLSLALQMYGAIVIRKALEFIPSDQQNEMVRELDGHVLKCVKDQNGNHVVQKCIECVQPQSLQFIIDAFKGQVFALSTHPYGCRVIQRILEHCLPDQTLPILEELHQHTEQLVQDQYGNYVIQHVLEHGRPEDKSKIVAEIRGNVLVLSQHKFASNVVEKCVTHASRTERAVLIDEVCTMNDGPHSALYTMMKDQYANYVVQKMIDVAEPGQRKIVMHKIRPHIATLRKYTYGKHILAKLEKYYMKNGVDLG

[2] = target: T2, PUM1 PUF domain R3-FCM C935F + R936C + Q939M (UniProt Q14671)
T2 sequence: T1 sequence with A108F, I109C, R112M

[3] = target: T3, PUM1 PUF domain R3-FIA C935F + R936I + Q939A (UniProt Q14671)
T3 sequence: T1 sequence with A108F, R112A

[4] = target: T4, PUM1 PUF domain R3-FIG C935F + R936I + Q939G (UniProt Q14671)
T4 sequence: T1 sequence with A108F, R112G

[5] = target: T5, PUM1 PUF domain R3-FRC C935F + Q939C (UniProt Q14671)
T5 sequence: T1 sequence with A108F, I109R, R112C

[6] = target: T6, PUM1 PUF domain R3-FRW C935F + Q939W (UniProt Q14671)
T6 sequence: T1 sequence with A108F, I109R, R112W

[7] = target: T7, PUM1 PUF domain R3-FSE C935F + R936S + Q939E (UniProt Q14671)
T7 sequence: T1 sequence with A108F, I109S, R112E

[8] = target: T8, PUM1 PUF domain R3-FSG C935F + R936S + Q939G (UniProt Q14671)
T8 sequence: T1 sequence with A108F, I109S, R112G

[9] = target: T9, PUM1 PUF domain R3-LRE C935L + Q939E (UniProt Q14671)
T9 sequence: T1 sequence with A108L, I109R, R112E

[10] = target: T10, PUM1 PUF domain R3-LRM C935L + Q939M (UniProt Q14671)
T10 sequence: T1 sequence with A108L, I109R, R112M

[11] = target: T11, PUM1 PUF domain R3-LSG C935L + R936S + Q939G (UniProt Q14671)
T11 sequence: T1 sequence with A108L, I109S, R112G

[12] = target: T12, PUM1 PUF domain R3-LSV C935L + R936S + Q939V (UniProt Q14671)
T12 sequence: T1 sequence with A108L, I109S, R112V

[13] = target: T13, PUM1 PUF domain R3-LWD C935L + R936W + Q939D (UniProt Q14671)
T13 sequence: T1 sequence with A108L, I109W, R112D

[14] = target: T14, PUM1 PUF domain R3-MCV C935M + R936C + Q939V (UniProt Q14671)
T14 sequence: T1 sequence with A108M, I109C, R112V

[15] = target: T15, PUM1 PUF domain R3-RER C935R + R936E + Q939R (UniProt Q14671)
T15 sequence: T1 sequence with A108R, I109E

[16] = target: T16, PUM1 PUF domain R3-RIG C935R + R936I + Q939G (UniProt Q14671)
T16 sequence: T1 sequence with A108R, R112G

[17] = target: T17, PUM1 PUF domain R3-RQS C935R + R936Q + Q939S (UniProt Q14671)
T17 sequence: T1 sequence with A108R, I109Q, R112S

[18] = target: T18, PUM1 PUF domain R3-SGE C935S + R936G + Q939E (UniProt Q14671)
T18 sequence: T1 sequence with A108S, I109G, R112E

[19] = target: T19, PUM1 PUF domain R3-STD C935S + R936T + Q939D (UniProt Q14671)
T19 sequence: T1 sequence with A108S, I109T, R112D

[20] = target: T20, PUM1 PUF domain R3-YRE C935Y + Q939E (UniProt Q14671)
T20 sequence: T1 sequence with A108Y, I109R, R112E

**Q.** “GGCUAGAACUAGUGGAUCCCCCGGCGCCCGGCGGCUCGAGCCCGGGUAAGUGUAAAUAGUCUGCAUGCCGCCGGGCGCCAUGCCUGCAGGUCGACUCUAGAAAACAUG” was tested. Which binding signal (log2 enrichment (interaction score)) [1] did it give?
**A.** < -6.84

**Q.** And the binding signal (log2 enrichment (interaction score)) [2]?
**A.** < -6.81

**Q.** What about the binding signal (log2 enrichment (interaction score)) [3] of the same sequence?
**A.** < -8.7

**Q.** And the binding signal (log2 enrichment (interaction score)) [4]?
**A.** -10.2

**Q.** What about the binding signal (log2 enrichment (interaction score)) [5] of the same sequence?
**A.** -5.35

**Q.** And the binding signal (log2 enrichment (interaction score)) [6]?
**A.** < -8

**Q.** And the binding signal (log2 enrichment (interaction score)) [7]?
**A.** < -8.25

**Q.** What about the binding signal (log2 enrichment (interaction score)) [8] of the same sequence?
**A.** < -10.6

**Q.** And the binding signal (log2 enrichment (interaction score)) [9]?
**A.** -6.64

**Q.** What about the binding signal (log2 enrichment (interaction score)) [10] of the same sequence?
**A.** -5.71

**Q.** What about the binding signal (log2 enrichment (interaction score)) [11] of the same sequence?
**A.** -6.41

**Q.** And the binding signal (log2 enrichment (interaction score)) [12]?
**A.** -6.99

**Q.** And the binding signal (log2 enrichment (interaction score)) [13]?
**A.** -6.66

**Q.** And the binding signal (log2 enrichment (interaction score)) [14]?
**A.** -5.77

**Q.** And the binding signal (log2 enrichment (interaction score)) [15]?
**A.** < -9.27

**Q.** And the binding signal (log2 enrichment (interaction score)) [16]?
**A.** < -9.45

**Q.** What about the binding signal (log2 enrichment (interaction score)) [17] of the same sequence?
**A.** < -7.82

**Q.** What about the binding signal (log2 enrichment (interaction score)) [18] of the same sequence?
**A.** < -9.35

**Q.** What about the binding signal (log2 enrichment (interaction score)) [19] of the same sequence?
**A.** < -9.44

**Q.** And the binding signal (log2 enrichment (interaction score)) [20]?
**A.** -6.64
